PMC8219688
Results are given in words; binding and its absence hold for the method and conditions named. For some assays here: In cells and extracts the contact can be indirect. Some entries that bind do so weakly or less than the wild type. For some assays here: Where a sequence is shown, tags or fusion partners need not be part of it.

Amino acid sequences for entries named in this document (tags omitted).
UniProt P83887: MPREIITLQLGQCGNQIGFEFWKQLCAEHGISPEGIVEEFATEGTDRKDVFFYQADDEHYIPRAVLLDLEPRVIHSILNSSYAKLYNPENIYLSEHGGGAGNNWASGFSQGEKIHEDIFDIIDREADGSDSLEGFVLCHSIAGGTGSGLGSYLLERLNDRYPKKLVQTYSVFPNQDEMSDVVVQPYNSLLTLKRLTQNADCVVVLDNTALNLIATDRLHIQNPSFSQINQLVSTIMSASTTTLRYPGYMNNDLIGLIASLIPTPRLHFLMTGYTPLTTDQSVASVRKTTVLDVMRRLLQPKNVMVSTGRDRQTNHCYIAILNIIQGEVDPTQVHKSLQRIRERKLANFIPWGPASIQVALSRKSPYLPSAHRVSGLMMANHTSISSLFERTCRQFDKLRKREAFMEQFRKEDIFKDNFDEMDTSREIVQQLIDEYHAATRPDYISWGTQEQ
UniProt P12004: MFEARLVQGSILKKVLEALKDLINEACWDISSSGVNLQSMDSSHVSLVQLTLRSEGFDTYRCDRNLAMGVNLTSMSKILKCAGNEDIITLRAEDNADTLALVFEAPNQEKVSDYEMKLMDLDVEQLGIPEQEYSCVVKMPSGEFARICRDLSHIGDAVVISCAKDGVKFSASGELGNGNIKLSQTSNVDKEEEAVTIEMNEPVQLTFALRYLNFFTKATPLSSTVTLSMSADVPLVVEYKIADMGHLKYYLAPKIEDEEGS
UniProt P17918: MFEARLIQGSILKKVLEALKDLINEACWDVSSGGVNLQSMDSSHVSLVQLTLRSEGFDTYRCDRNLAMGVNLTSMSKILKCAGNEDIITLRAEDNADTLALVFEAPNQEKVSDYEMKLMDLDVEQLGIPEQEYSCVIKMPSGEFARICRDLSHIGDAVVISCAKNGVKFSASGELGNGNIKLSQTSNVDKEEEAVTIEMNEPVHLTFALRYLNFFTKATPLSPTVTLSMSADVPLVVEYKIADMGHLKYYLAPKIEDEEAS

How the values were obtained:
[1] = molecular target: T1, GST-CDC25C^200–256 (human) (UniProt P30307); experiment: pull-down; GST-tagged proteins (500 ng) bound to glutathione Sepharose 4B beads, incubated 45 min at 4 °C with His-PCNA (500 ng) in 1 mL of 20 mM Tris pH 7.5, 0.1% Triton X-100, 1 mM MgCl2, 5 mM βME, 137 mM NaCl, 5% glycerol; two washes; western blot; both purified
T1 sequence: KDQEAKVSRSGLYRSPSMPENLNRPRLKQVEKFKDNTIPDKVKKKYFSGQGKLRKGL

[2] = molecular target: γ-tubulin 1 (endogenous, NIH3T3 cells) (mouse (endogenous in NIH3T3)) (UniProt P83887); experiment: co-IP; γ-tubulin immunoprecipitated with anti-γ-tubulin (mouse monoclonal T6557) from cytosolic and chromatin fractions (micrococcal nuclease, sonicated; 1% Triton X-100, 20 mM Tris pH 7.5, 150 mM NaCl) of NIH3T3 cells and of S phase-synchronized U2OS and MCF10A cells; western blot for PCNA

Row | binding [1] | binding [2] | Substance
1 | no binding (tested: 500 ng PCNA in 1 mL) |  | His6-tagged PCNA (from UniProt P12004 1-261)
2 |  | binds | proliferating cell nuclear antigen (endogenous, NIH3T3 cells) (from UniProt P17918 1-261)
